Laboratory results: paper doi:10.1101/780460
No constants are given. Whether binding was seen depends on the method and setting. Binding seen in cells or lysates may run through a third protein. Some binding calls cover weakened binding; strength is not graded here.

By UniProt entry, the sequences of proteins in these tests, tags left out. Where a name states a change or a piece, a line headed by the entry shows the natural chain unless it says otherwise. Chains listed by the source or under a name are the forms on record and can include a tag or linker. Residues count along the entry.
UniProt P00441: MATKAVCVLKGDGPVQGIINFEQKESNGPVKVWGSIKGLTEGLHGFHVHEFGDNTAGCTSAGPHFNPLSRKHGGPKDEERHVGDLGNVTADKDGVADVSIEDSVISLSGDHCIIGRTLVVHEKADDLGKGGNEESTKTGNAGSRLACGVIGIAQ
Flag-tagged SOD1^G93A (P00441, form named): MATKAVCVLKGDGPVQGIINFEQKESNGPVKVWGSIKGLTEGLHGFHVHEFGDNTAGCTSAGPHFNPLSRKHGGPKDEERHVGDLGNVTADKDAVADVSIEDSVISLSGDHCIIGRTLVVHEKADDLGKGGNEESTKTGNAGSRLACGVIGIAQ
Flag-tagged SOD1^G85R (P00441, form named): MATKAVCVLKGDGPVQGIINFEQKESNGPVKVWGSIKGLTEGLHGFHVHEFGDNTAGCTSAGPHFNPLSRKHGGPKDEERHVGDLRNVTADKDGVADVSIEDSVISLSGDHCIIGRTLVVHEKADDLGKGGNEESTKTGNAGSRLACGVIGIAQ
Flag-tagged SOD1^A4V (P00441, form named): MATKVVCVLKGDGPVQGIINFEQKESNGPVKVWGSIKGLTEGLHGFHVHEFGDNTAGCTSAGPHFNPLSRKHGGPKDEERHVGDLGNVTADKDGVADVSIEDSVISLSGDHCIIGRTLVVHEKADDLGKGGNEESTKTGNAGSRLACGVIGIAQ
Flag-tagged SOD1^V148I (P00441, form named): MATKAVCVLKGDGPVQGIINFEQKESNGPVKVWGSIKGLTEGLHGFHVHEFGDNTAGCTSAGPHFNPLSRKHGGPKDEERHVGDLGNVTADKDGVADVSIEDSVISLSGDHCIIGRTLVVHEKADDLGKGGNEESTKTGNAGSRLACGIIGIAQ
Flag-tagged SOD1^V148G (P00441, form named): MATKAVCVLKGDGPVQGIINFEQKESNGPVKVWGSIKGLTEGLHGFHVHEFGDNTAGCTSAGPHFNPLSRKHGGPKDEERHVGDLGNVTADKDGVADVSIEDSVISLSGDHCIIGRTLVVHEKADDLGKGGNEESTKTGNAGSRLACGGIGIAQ
Myc-tagged TRAF6^ΔC (aa. 1-288) (Q9Y4K3, residues 1-288): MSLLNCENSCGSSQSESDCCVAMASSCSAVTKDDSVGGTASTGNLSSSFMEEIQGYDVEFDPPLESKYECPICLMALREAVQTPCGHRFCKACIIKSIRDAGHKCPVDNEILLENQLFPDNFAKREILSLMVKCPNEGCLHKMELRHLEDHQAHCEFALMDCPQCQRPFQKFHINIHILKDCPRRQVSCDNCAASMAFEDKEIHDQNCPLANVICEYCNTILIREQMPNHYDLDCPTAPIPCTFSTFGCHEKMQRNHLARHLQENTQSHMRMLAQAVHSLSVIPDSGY
Myc-tagged TRAF6^ΔN (aa. 289-522) (Q9Y4K3, residues 289-522): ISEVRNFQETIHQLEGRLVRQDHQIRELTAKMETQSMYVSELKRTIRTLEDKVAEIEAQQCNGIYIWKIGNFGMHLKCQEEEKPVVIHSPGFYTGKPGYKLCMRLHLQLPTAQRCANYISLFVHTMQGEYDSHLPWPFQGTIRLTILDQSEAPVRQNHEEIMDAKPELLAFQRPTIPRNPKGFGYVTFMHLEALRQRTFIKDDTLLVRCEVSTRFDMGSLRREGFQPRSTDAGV

What was measured:
Assay in all cases: co-IP
[1] = biological target: Flag-tagged SOD1^G93A (human) (UniProt P00441)
[2] = biological target: Flag-tagged SOD1 wild type (human) (UniProt P00441)
[3] = biological target: Flag-tagged SOD1^G85R (human) (UniProt P00441)
[4] = biological target: Flag-tagged SOD1^A4V (human) (UniProt P00441)
[5] = biological target: Flag-tagged SOD1^V148I (human) (UniProt P00441)
[6] = biological target: Flag-tagged SOD1^V148G (human) (UniProt P00441)

Row | Substance | binding [1] | binding [2] | binding [3] | binding [4] | binding [5] | binding [6]
1 | Myc-tagged TRAF6^ΔC (aa. 1-288) (from UniProt Q9Y4K3 1-288) (domain or fragment) | no binding | no binding | no binding | – | – | –
2 | Myc-tagged TRAF6^ΔN (aa. 289-522) (from UniProt Q9Y4K3 289-522) (domain or fragment) | binds | no binding | binds | binds | no binding | binds
